Experimental data published in the supplement of paper PMC8166895.
Structures can show the parent of a compound that is named as a salt. Some of the results follow. Most entries show no effect beyond the scatter of the controls.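 Melting temperature was read by differential scanning fluorimetry in a single-replicate pilot screen of a library of approved drugs and clinical or known-target compounds. Compounds raising the melting point by at least 2 °C were the top stabilizing hits, and negative shifts mean destabilization.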

System: SARS-CoV-2 main protease (Mpro, nsp5)
Assay: thermal shift ΔTm of Mpro relative to plate average Tm; higher = stronger thermal stabilization of Mpro (binding)
Conditions: 10 µM; protein concentration 1 µM

Row | SMILES | thermal shift ΔTm of Mpro
1 | O=C1CC2(CCCC2)CC(=O)N1CCCCN1CCN(c2ncccn2)CC1 [Buspirone HCl] | 0.0475 °C
2 | CC[C@H]1OC(=O)[C@H](C)[C@@H](O[C@H]2C[C@@](C)(OC)[C@@H](O)[C@H](C)O2)[C@H](C)[C@@H](O[C@@H]2O[C@H](C)C[C@H](N(C)C)[C@H]2O)[C@](C)(O)C[C@@H](C)[C@@H]2N[C@@H](COCCOC)O[C@H]([C@H]2C)[C@]1(C)O [Dirithromycin] | 0.0087 °C
3 | CCc1c(C(=O)C(N)=O)c2c(OCC(N)=O)cccc2n1Cc1ccccc1 [hnps-PLA Inhibitor] | -0.0357 °C
4 | Cc1cc(C)c(/C=C2\C(=O)Nc3ccccc32)[nH]1 [Semaxanib (SU5416)] | -0.226 °C
5 | Cc1cc(C)c(/C=C2\C(=O)Nc3ccccc32)[nH]1 [Semaxinib] | -0.0618 °C
6 | O=C(NOC[C@H](O)CO)c1ccc(F)c(F)c1Nc1ccc(I)cc1F | -0.04 °C
7 | CC(C)c1cc(-c2ccc(F)c3ccccc23)nc(N)n1 | -0.13 °C
8 | Cc1cccc(C#Cc2ccccc2)n1 | -0.139 °C
9 | CC(C)(C)C1CCC(CC2=C(O)c3ccccc3C(=O)C2=O)CC1 (stereo unspecified) [Buparvaquone] | 0.399 °C
10 | COc1ccc(C(NC(=O)c2cnc(-c3cccnn3)[nH]c2=O)c2ccc(OC)cc2)cc1 | 0.0226 °C
11 | CN(C)C(=O)Oc1cc(OC(=O)N(C)C)cc(C(O)CNC(C)(C)C)c1 (stereo unspecified) [Bambuterol HCl] | 0.0464 °C
12 | C[C@H](O)C(=O)Nc1c(I)c(C(=O)NC(CO)CO)c(I)c(C(=O)NC(CO)CO)c1I [Iopamidol] | 0.42 °C
13 | O=c1cc[nH]c(=S)[nH]1 [2-Thiouracil] | 0.0602 °C
14 | Cc1nc(-c2cn3c(n2)-c2ccc(-c4cnn(C(C)(C)C(N)=O)c4)cc2OCC3)n(C(C)C)n1 | -0.0369 °C
15 | O=C(/C=C/c1ccc(CN(CCO)CCc2c[nH]c3ccccc23)cc1)NO [LAQ824 (Dacinostat)] | 0.122 °C
16 | Nc1nc(NCCc2ccc(O)cc2)nc2nc(-c3ccco3)nn12 | -0.0369 °C
17 | COc1cc2oc(-c3ccccc3)cc(=O)c2c(O)c1O [Negletein] | -0.0544 °C
18 | O=C(O)c1cnn(-c2nc3cc(OC(F)(F)F)c(Cl)cc3[nH]2)c1 [HIF-PHD Inhibitor II] | 0.00517 °C
19 | O=C(O)c1ccc(CN2CCC(CN[C@@H]3C[C@H]3c3ccccc3)CC2)cc1 | -0.0236 °C
20 | CCOCC(O)COc1ccc(NC(=O)CC[S+](C)C)cc1 (stereo unspecified) [Suplatast Tosylate] | 0.0604 °C
21 | COc1cc(OCc2ccccn2)ccc1/C=C/c1cc(/C=C/c2ccc3cc[nH]c3c2)n[nH]1 | 0.16 °C
22 | COc1c(O)c(C)cc2c1C(=O)c1c(O)cccc1C2=O [Obtusifolin] | 0.167 °C
23 | N#Cc1ccc([C@H]2CCc3cncn32)c(F)c1 [Osilodrostat] | 0.0859 °C
24 | CO/N=C(\C(=O)N[C@@H]1C(=O)N2C(C(=O)O)=C(COC(N)=O)CS[C@H]12)c1ccco1 [Cefuroxime sodium] | -0.0192 °C
25 | CN1CCN(CCOc2cc(OC3CCOCC3)c3c(Nc4c(Cl)ccc5c4OCO5)ncnc3c2)CC1 [Saracatinib (AZD0530)] | -0.179 °C
26 | CCN(C)C(=O)Oc1cccc([C@H](C)N(C)C)c1 [Rivastigmine] | 0.174 °C

Fetched one by one from the list above, four records:
Row | SMILES | thermal shift ΔTm of Mpro
20 | CCOCC(O)COc1ccc(NC(=O)CC[S+](C)C)cc1 (stereo unspecified) [Suplatast Tosylate] | 0.0604 °C
3 | CCc1c(C(=O)C(N)=O)c2c(OCC(N)=O)cccc2n1Cc1ccccc1 [hnps-PLA Inhibitor] | -0.0357 °C
13 | O=c1cc[nH]c(=S)[nH]1 [2-Thiouracil] | 0.0602 °C
18 | O=C(O)c1cnn(-c2nc3cc(OC(F)(F)F)c(Cl)cc3[nH]2)c1 [HIF-PHD Inhibitor II] | 0.00517 °C

More entries.

Row | SMILES | thermal shift ΔTm of Mpro
27 | CCN(C)C(=O)Oc1cccc([C@H](C)N(C)C)c1 [Rivastigmine Tartrate] | 0.112 °C
28 | CNC(=O)c1cnn(-c2nc(N)c3ncn([C@@H]4O[C@H](CO)[C@@H](O)[C@H]4O)c3n2)c1 [Regadenoson] | 0.0581 °C
29 | O=c1[nH]c(=S)[nH]c(/N=C/c2ccccc2)c1N=Cc1ccccc1 | -0.0226 °C
30 | CCC(=O)c1c(O)cc(O)cc1O [Flopropione] | 0.474 °C
31 | C=CC(=O)Nc1ccc2ncnc(Nc3cccc(Br)c3)c2c1 | 0.395 °C
32 | CC1Cc2ccccc2N1NC(=O)c1ccc(Cl)c(S(N)(=O)=O)c1 (stereo unspecified) [Indapamide] | -0.17 °C
33 | O=C(/C=C\n1cnc(-c2cc(C(F)(F)F)cc(C(F)(F)F)c2)n1)NNc1ccccn1 [Verdinexor (KPT-335)] | 0.293 °C
34 | CCC1(c2ccc(N)cc2)CCC(=O)NC1=O (stereo unspecified) [Aminoglutethimide] | -0.13 °C
35 | CCN=C1N[C@@H]2[C@@H](O)[C@H](O)[C@@H](CO)O[C@@H]2S1 [Thiamet G] | -0.0164 °C
36 | NC1(C(=O)O)CC(C(=O)O)C1 (stereo unspecified) | 0.0821 °C
37 | Nc1ncnc2c1c(I)cn2[C@@H]1O[C@H](CO)[C@@H](O)[C@H]1O [5-Iodotubercidin] | -0.0771 °C
38 | Cc1ccc(CN(CC(O)COc2cccc3[nH]ccc23)C(C)(C)C)cc1 (stereo unspecified) | -0.0353 °C
39 | CCC(=O)Oc1ccc2c(c1)CCC1C2CCC2(C)C(OC(=O)CC)CCC12 (stereo not drawn) [17-Beta-Estradiol-3,17-Dipropionate] | 0.046 °C
40 | CNc1cccc(CCOc2ccc3c(c2)CN(CC(F)(F)F)C(=O)[C@H](CC(=O)O)C3)n1 | -0.112 °C
41 | CCCCCCCCCCCCCCCC(=O)O[C@@H]1[C@@H](O)[C@@H](O)[C@@H]([C@H](NC(=O)[C@@H]2C[C@@H](CCC)CN2C)[C@H](C)Cl)O[C@@H]1SC [Clindamycin palmitate HCl] | 0.063 °C
42 | Cc1cc(CC(=O)O)n(C)c1C(=O)c1ccc(Cl)cc1 [Zomepirac Sodium] | 0.337 °C
43 | O=C1CN(/N=C/C=C/c2ccc([N+](=O)[O-])o2)C(=O)N1 [Furagin] | 0.0874 °C
44 | CC(=O)Nc1ncc([N+](=O)[O-])s1 [Nithiamide] | 0.00848 °C
45 | OC[C@H]1O[C@@H](Oc2cc(O)cc(/C=C/c3ccc(O)cc3)c2)[C@H](O)[C@@H](O)[C@@H]1O [Polydatin] | 0.00895 °C
46 | O=c1c(O)c(-c2ccc(O)cc2O)oc2cc(O)cc(O)c12 [Morin Hydrate] | -0.0858 °C
47 | COc1ccc(C2CNC(=O)C2)cc1OC1CCCC1 (stereo unspecified) [Rolipram] | 0.184 °C
48 | CC(=O)Nc1nc(C)c(-c2ccc(Cl)c(S(=O)(=O)NCCO)c2)s1 | 0.464 °C
49 | Cc1cc(O)c(-c2ccc([C@@H](C)CN)cc2)c2c1[nH]c(=O)c1sccc12 [OTS514 hydrochloride] | 0.00971 °C
50 | [Na+].[Na+].[Na+].[O]=[V]([O-])([O-])[O-] [Sodium orthovanadate] | 0.263 °C
51 | Cc1c(Cl)cccc1S(=O)(=O)Nc1nc(CC(=O)N2CCN(C)CC2)cs1 | 0.0508 °C
